From patent publication EP2886531B1, “Aspartic acid derivatives” (Merck Patent GmbH, priority 2013, dated 2015)

What was measured:
[1] = HPLC analysis of crude VKDRYI peptides directly after synthesis (deletion sequences); conditions: crude peptides directly after the synthesis, limit of detection
[2] = UPLC analysis of crude VKDNYI peptides directly after synthesis (deletion sequences); conditions: crude peptides directly after the synthesis, limit of detection

| Structure (SMILES) | Asp deletion and deletions of a preceding amino acid [1] | Asp deletion and deletions of a preceding amino acid [2] |
| --- | --- | --- |
| CCCCC(CCCC)(CCCC)OC(=O)C[C@H](NC(=O)OCC1c2ccccc2-c2ccccc21)C(=O)O [Bno] | no Asp deletion and no deletions of a proceeding amino acid are detected | no Asp deletion and no deletions of a proceding amino acid are detected |
| CCC(C)(CC)OC(=O)C[C@H](NC(=O)OCC1c2ccccc2-c2ccccc21)C(=O)O [Mpe, Fmoc-Asp(OMpe)-OH, reference compound] | no Asp deletion and no deletions of a proceeding amino acid are detected | no Asp deletion and no deletions of a proceding amino acid are detected |
